We go through one compound from patent US11446314B2, “Immunoablative therapies” (AVM Biotechnology LLC, priority 2018, dated 2022).

For assay [1], the system named is multiple myeloma and other cancer cell lines.
In assay [2] the test system is spleen cellularity. Conditions: IP 10 mg/kg (HED 0.81 mg/kg) on day −6, −4, −2 before ACT; cited from earlier work.
The test system of assay [3] is marginal zone. Particulars: rats, 12.9 mg/kg HED, 48 hours.
Assay [4] concerns germinal centers. Conditions: rats, 12.9 mg/kg HED, 48 hours.
Assay [5] relates to peripheral blood lymphocytes. Particulars: same dosing; control 1153.

The structures appear in SMILES notation.

As for `C[C@@H]1C[C@H]2[C@@H]3CCC4=CC(=O)C=C[C@]4(C)[C@@]3(F)[C@@H](O)C[C@]2(C)[C@@]1(O)C(=O)CO` [dexamethasone], the direct tumor killing entry in assay [1] (about 1.6 mg/kg HED in a 48 hour period) is given as “about 50%”. Also, the “direct tumor killing at higher doses” value in assay [1] (doses up to about 12 mg/kg HED) is given as “maintained but not increased”. The “enhancement of ACT tumor killing” value in assay [2] is recorded as “did not enhance ACT tumor killing”. Also, the marginal zone inhibition entry in assay [3] is “maximally inhibited”. The germinal center inhibition result in assay [4] is on record as “maximally inhibited”. Also, the “natural killer (NK) cells” value in assay [5] worked out at 958 live events.
